Test results from article doi:10.1101/347179.
Substitutions are numbered along the chain they refer to. No constants are given. Whether binding was seen depends on the method and setting. In cells and extracts the contact can be indirect. Some binding calls cover weakened binding; strength is not graded here. Where a sequence is shown, tags or fusion partners need not be part of it.

Amino acid sequences for entries named in this document (tags omitted). Residues count along the entry.
UniProt P37198: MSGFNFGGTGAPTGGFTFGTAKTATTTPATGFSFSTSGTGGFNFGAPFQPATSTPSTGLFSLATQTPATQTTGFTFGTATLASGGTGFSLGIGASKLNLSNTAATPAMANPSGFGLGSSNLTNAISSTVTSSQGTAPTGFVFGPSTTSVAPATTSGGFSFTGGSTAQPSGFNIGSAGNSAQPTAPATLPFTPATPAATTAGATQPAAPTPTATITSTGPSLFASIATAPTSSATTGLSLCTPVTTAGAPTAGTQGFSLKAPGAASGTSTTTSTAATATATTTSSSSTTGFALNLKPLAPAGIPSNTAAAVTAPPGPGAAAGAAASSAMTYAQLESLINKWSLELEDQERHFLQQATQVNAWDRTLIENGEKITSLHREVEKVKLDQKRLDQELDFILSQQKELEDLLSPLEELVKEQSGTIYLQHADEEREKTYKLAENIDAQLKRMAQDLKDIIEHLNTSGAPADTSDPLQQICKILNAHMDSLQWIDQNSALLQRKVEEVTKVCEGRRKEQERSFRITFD
UniProt P52948, residues 1-880: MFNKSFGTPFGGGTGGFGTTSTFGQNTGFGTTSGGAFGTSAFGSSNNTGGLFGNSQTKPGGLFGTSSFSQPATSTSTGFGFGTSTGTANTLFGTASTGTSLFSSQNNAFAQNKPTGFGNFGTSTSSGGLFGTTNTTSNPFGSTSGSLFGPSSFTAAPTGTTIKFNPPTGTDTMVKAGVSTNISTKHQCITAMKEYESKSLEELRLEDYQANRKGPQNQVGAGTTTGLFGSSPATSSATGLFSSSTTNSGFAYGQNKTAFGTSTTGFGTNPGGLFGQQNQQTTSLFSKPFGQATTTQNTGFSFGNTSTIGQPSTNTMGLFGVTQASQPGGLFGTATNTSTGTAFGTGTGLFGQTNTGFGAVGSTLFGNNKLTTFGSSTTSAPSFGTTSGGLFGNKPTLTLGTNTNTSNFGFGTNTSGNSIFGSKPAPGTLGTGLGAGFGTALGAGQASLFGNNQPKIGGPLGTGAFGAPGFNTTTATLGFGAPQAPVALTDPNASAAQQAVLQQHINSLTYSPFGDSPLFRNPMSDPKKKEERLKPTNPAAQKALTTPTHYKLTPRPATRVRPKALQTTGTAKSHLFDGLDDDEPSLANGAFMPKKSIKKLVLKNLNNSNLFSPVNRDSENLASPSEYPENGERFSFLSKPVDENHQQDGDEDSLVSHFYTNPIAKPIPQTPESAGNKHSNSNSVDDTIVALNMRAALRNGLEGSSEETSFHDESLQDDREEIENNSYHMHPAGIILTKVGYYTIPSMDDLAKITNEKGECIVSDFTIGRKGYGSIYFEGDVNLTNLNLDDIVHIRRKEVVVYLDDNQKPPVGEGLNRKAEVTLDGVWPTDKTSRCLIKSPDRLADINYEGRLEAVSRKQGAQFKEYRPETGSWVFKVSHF

Key:
Test in all cases: co-IP
[1] = target: T1, GFP-NUP88 p.D434Y (human) (UniProt Q99567)
T1 sequence: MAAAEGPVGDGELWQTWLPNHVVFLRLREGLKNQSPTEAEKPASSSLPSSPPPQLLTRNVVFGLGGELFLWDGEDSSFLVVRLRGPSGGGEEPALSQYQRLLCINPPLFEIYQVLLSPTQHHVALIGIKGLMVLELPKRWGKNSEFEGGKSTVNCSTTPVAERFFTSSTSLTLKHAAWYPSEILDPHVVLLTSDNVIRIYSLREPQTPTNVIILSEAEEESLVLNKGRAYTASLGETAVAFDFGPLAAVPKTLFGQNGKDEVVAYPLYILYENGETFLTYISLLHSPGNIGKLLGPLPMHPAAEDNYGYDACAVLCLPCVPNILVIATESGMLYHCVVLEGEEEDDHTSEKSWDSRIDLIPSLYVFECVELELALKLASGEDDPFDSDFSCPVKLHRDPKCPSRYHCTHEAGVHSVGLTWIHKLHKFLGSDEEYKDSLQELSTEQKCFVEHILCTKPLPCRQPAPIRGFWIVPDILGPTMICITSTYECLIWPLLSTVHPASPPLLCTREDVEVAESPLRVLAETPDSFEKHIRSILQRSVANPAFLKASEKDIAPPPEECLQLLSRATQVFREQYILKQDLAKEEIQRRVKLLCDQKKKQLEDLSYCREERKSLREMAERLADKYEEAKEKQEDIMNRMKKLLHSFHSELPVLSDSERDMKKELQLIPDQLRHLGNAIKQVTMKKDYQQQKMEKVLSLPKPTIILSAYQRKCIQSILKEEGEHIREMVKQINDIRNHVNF

[2] = target: T2, GFP-NUP88 wild-type (human) (UniProt Q99567)
T2 sequence: T1 sequence with Y434D

[3] = target: T3, GFP-NUP88 p.E634del (human) (UniProt Q99567)
T3 sequence: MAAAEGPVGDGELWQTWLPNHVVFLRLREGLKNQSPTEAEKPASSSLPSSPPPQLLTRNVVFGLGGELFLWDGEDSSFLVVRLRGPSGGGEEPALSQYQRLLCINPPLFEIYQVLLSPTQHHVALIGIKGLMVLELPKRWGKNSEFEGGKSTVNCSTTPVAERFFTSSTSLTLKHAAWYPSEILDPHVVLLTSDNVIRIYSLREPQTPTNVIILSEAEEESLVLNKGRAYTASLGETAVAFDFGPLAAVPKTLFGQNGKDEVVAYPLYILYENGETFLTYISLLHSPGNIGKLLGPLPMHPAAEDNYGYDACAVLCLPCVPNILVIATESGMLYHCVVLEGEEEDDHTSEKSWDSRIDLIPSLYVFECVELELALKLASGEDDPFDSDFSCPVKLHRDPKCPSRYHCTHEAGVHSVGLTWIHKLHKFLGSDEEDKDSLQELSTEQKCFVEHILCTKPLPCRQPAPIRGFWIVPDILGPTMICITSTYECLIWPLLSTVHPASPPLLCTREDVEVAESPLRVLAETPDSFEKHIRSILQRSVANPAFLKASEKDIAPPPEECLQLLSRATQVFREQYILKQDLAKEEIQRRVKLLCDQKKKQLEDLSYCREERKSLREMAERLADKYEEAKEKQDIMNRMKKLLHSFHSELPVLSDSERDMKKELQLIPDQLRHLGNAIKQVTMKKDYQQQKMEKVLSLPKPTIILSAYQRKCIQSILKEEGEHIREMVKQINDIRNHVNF

[4] = target: T4, GFP-NUP88 p.R509* (human) (UniProt Q99567)
T4 sequence: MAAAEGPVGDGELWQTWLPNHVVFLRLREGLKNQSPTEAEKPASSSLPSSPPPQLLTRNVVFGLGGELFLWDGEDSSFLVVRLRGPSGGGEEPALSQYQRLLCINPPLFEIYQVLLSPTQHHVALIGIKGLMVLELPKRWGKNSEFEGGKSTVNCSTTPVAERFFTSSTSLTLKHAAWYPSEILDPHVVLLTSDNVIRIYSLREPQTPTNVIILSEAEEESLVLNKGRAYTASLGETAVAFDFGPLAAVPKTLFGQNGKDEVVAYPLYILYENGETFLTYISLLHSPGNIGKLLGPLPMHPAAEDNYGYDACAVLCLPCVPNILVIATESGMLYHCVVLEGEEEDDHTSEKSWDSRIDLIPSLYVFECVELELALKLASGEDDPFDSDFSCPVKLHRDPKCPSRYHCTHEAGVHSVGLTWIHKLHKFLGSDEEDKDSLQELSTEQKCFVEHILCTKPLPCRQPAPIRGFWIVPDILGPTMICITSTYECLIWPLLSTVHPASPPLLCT

Row | binding [1] | binding [2] | binding [3] | binding [4] | Substance
1 | binds | binds | no binding | no binding | NUP62 (from UniProt P37198 1-522)
2 | binds | binds | binds | binds | NUP98 (from UniProt P52948 1-880)
